From PubChem BioAssay
Where “and” joins values, the source holds several entries; their conditions need not be identical. Identical values can stand only once. The list shows a part of the results. The main result of the screen is listed elsewhere. These columns were measured beside it and carry no call.

Assay: PubChem AID 1586
Conditions: yeast two-hybrid polyglutamine protein interaction, reporter readout; measured here: averaged growth delta OD

| Compound | signal change (36 h minus 0 h) |
| --- | --- |
| C=CC[C@@H]1/C=C(\C)C[C@H](C)C[C@H](OC)[C@H]2O[C@@](O)(C(=O)C(=O)N3CCCC[C@H]3C(=O)O[C@H](/C(C)=C/[C@@H]3CC[C@@H](O)[C@H](OC)C3)[C@H](C)[C@@H](O)CC1=O)[C@H](C)C[C@@H]2OC | 0.121 |
| CC(C[N+](C)(C)C)OC(N)=O (stereo unspecified) | 0.194 |
| OCCN1CCN(CCCN2c3ccccc3Sc3ccc(Cl)cc32)CC1 | 0.0651 |
| NCCSSCCN | 0.0756 |
| CCCCCCc1ccc(O)cc1O | 0.113 |
| Nc1ccn(C2O[C@H](CO)[C@@H](O)[C@@H]2O)c(=O)n1 (stereo partly specified) | 0.179 |
| NC[C@H]1O[C@H](O[C@H]2[C@H](O)[C@@H](O[C@H]3O[C@H](CO)[C@@H](O)[C@H](N)[C@H]3O)[C@H](N)C[C@@H]2N)[C@H](O)[C@@H](O)[C@@H]1O | 0.0101 |
| C#C[C@]1(O)CCC2C3CCC4=Cc5oncc5C[C@]4(C)C3CC[C@@]21C (stereo partly specified) | 0.0531 |
| CC(C)=CCC1=C(O)c2ccccc2C(=O)C1=O | 0.0411 |
| CCCCC1C(=O)N(c2ccccc2)N(c2ccc(O)cc2)C1=O (stereo unspecified) | 0.0612 |
| COc1ccc(CCN(C)CCCC(C#N)(c2ccc(OC)c(OC)c2)C(C)C)cc1OC (stereo unspecified) | 0.0419 |
| Cc1nnc(SCC2=C(C(=O)O)N3C(=O)[C@@H](NC(=O)Cn4cnnn4)[C@H]3SC2)s1 | 0.182 |
| CSc1ccc2c(c1)N(CCC1CCCCN1C)c1ccccc1S2 (stereo unspecified) | 0.0977 |
| Fc1ccc(C(c2ccccc2)(c2ccccc2F)n2ccnc2)cc1 (stereo unspecified) | 0.0961 and 0.256 |
| CN(C)C(=O)Oc1ccc[n+](C)c1 | 0.176 |
| C[C@@H]1O[C@@H](O[C@H]2[C@H](Oc3cc(O)c4c(c3)O[C@H](c3ccc(O)cc3)CC4=O)O[C@H](CO)[C@@H](O)[C@@H]2O)[C@H](O)[C@H](O)[C@H]1O | 0.175 |
